Measurements published in US6709676B2, “Extended release oral dosage composition” (Schering Corporation, priority 1999, dated 2004).

Legend:
cells of human origin = conditions: in vitro, mainly cells of human origin; mediator, cytokine and chemokine release, superoxide, adhesion molecules, eosinophil migration
[1] = tested on: seasonal allergic rhinitis patients; conditions: over 3,200 patients, 4 double-blind randomized trials, adult and adolescent patients

SMILES: Clc1ccc2c(c1)CCc1cccnc1C2=C1CCNCC1 [desloratadine, Desloratadine]
- inhibition of events in the cascade of allergic inflammation (cells of human origin): can inhibit many events in the cascade of allergic inflammation
- clinical efficacy in seasonal rhinitis [1]: demonstrated the efficacy
